Article PMC11727998, “Purification and Electron Transfer from Soluble c-Type Cytochrome TorC to TorA for Trimethylamine N-Oxide Reduction” (International Journal of Molecular Sciences, 2024)
No constants are given. Whether binding was seen depends on the method and setting. Some results given as binding are weak or reduced against the parent protein; the word gives no strength.

Tests used:
[1] = target: soluble TorC (heme-containing, holo-TorC) (E. coli) (UniProt P33226); assay: SEC; Ni-NTA-purified TorC alone (approx. 20 mg) on a 16/600 Superdex 200 prep-grade column in 50 mM Tris-HCl, pH 7.6; both purified
apo-TorA = target: T1, apo-TorA (E. coli, UniProt P33225 40-848); assay: SEC; analytical Superdex 200 10/300 GL, 30 µM of each protein in 20 mM phosphate buffer, pH 7.4; fractions on SDS-PAGE; both purified
T1 construct: TorA, TMAO reductase of E. coli, apo form; Apo form (without cofactor); source: purified following published procedures [31]
T1 sequence: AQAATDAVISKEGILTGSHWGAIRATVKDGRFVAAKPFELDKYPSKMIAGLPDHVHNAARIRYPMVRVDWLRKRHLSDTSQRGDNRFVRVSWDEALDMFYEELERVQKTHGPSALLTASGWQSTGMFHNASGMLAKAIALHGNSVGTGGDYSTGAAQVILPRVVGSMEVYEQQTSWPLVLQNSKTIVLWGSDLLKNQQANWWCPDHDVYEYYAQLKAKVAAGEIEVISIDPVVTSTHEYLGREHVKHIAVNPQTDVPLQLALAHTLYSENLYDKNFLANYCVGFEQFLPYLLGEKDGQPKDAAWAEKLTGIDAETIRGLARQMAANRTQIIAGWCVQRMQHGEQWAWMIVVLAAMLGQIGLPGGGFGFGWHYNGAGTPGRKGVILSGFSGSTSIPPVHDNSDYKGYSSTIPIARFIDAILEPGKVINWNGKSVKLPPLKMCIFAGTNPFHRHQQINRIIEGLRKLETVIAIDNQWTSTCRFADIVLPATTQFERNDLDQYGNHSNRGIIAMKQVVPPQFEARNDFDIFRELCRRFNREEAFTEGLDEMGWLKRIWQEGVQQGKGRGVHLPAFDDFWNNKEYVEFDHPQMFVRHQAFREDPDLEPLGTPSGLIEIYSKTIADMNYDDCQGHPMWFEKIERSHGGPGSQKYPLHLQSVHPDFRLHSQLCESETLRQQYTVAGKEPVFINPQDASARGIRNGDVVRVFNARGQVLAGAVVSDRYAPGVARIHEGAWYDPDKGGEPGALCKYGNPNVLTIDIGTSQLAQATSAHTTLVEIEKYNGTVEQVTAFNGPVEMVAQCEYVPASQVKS

TorA (TMAO reductase) = target: T2, TorA (TMAO reductase) (E. coli, UniProt P33225 40-848); assay: cross-linking; 5 µM TorA, 5 µM TorC, 1 mM DSPP, 100 mM NaCl, 20 mM HEPES pH 7.4, 1 h at RT; tryptic digest, enrichment, LC-MS; four replicates; both purified
T2 sequence: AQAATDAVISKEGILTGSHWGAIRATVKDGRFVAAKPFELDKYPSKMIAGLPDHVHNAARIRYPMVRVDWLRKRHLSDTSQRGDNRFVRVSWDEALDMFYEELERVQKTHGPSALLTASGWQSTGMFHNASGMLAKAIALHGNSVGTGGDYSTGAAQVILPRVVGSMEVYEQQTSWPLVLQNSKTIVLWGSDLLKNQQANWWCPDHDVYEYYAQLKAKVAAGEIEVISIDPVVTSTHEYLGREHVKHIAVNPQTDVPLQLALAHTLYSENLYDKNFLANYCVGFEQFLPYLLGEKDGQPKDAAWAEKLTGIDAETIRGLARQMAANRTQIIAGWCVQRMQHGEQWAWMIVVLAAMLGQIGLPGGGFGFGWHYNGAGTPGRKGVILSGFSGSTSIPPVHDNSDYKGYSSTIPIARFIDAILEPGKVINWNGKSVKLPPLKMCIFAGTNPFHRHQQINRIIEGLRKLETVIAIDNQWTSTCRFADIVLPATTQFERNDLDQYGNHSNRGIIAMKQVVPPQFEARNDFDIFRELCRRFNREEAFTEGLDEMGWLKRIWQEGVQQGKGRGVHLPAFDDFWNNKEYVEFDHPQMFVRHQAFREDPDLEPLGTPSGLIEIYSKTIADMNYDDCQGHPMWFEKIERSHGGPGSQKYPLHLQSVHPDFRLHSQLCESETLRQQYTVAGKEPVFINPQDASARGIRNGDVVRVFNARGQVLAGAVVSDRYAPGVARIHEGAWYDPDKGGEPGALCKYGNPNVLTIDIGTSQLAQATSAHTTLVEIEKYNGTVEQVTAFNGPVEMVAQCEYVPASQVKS

binding [1]: no binding
binding (apo-TorA): binds
binding (TorA (TMAO reductase)): binds
B1: soluble TorC (heme-containing, holo-TorC) (natural protein, E. coli, UniProt P33226 21-390, looked up)
chain: VAIGIVIGIALIVLPHVGIKVTSTTEFCVSCHSMQPVYEEYKQSVHFQNASGVRAECHDCHIPPDIPGMVKRKLEASNDIYQTFIAHSIDTPEKFEAKRAELAEREWARMKENNSATCRSCHNYDAMDHAKQHPEAARQMKVAAKDNQSCIDCHKGIAHQLPDMSSGFRKQFDELRASANDSGDTLYSIDIKPIYAAKGDKEASGSLLPASEVKVLKRDGDWLQIEITGWTESAGRQRVLTQFPGKRIFVASIRGDVQQQVKTLEKTTVADTNTEWSKLQATAWMKKGDMVNDIKPIWAYADSLYNGTCNQCHGAPEIAHFDANGWIGTLNGMIGFTSLDKREERTLLKYLQMNASDTAGKAHGDKKEEK
modifications: heme c at the five CXXCH motifs (iron saturation about 75% of five hemes)
notes: TorC, pentahemic c-type cytochrome of E. coli, lacking the N-terminal 20 amino acid membrane anchor (first 60 nucleotides of the gene deleted); also called soluble periplasmic TorC; source: E. coli HM125 with pTorC-SS and pEC86 (ccmABCDEFGH), hemin added, purified (Ni-NTA, gel filtration)
